Drawing on paper PMC12607858, “GNAT family Pat2 is required for long-term survival on glycerol and catalyzes lysine acetylation of glycerol kinase in hypersaline-adapted archaea” (mBio, 2025), this text covers binding for one molecule.

For the experiment, the target named is T1, HvPat2-SII Y154A (Haloferax volcanii) (UniProt D4GSS9).
T1 sequence: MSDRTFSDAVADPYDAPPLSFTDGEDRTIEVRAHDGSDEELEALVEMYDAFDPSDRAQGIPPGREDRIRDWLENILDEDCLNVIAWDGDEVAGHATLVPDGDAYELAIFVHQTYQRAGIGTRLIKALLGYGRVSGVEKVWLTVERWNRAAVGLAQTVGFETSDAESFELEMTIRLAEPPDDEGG
Nature of the experiment: affinity purification with mass spectrometry; StrepTactin resin with clarified H. volcanii lysate, 50 mM HEPES pH 7.5, 2 M NaCl, 1 mM TCEP, eluted with 1 mM desthiobiotin; co-purifying band at about 50 kDa cut from the SDS-PAGE gel and identified by LC-MS/MS, compared to the empty vector control.

These are yes or no findings as the source states them, for the method shown. Binding seen in cells or lysates may run through a third protein. Here binding means that the protein was enriched with, or labelled near, the bait; the list need not be complete.

B1: HVO_2384, tandem CBS domain protein with a C-terminal ribosome hibernation factor domain (protein, UniProt D4GWN2 1-380)
chain: MDIADIATPDFIEVDVNERLGKVRSIFERENPKGIIVQDDGEYAGVIGEKQLINSHVEDNTKAAALTKAVPKIDRHENVREVARMLVEGDTKVAPVYEGEKQYGIITQDAILEAVLDNLDALTVEQIYTDDVVTVGERDHLGQAINRLREHGVSRLPVVNDEGRLEGILTTYDLVEFMVRDEGRQGKQDRRGDTDRMLDLPVYDLMTSPARTATPDESVRDAVARMLEHDIAGLVVTPADDDGEVLGVVTKTDVLRALTYTEEEQMDVQVTNIGLIETLSRADINSAITEVADKYQRMSVLHAHVRFHEHKEKLRGTPLIQCQIRLRTSHGQLAGSGEGYGAEHAFHVALDKLERNVLEVKGFEADERYRGQLLRKLNEL
As to B1, the binding entry is given as “binds”.
